According to the supplement of paper PMC10849652:
This is one part of the list.

By UniProt entry, the sequences of proteins in these tests, tags left out. Where a name states a change or a piece, a line headed by the entry shows the natural chain unless it says otherwise.
UniProt P56181: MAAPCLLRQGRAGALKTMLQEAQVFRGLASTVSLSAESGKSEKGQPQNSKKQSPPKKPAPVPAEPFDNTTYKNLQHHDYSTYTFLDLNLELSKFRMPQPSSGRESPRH
UniProt Q5TEU4: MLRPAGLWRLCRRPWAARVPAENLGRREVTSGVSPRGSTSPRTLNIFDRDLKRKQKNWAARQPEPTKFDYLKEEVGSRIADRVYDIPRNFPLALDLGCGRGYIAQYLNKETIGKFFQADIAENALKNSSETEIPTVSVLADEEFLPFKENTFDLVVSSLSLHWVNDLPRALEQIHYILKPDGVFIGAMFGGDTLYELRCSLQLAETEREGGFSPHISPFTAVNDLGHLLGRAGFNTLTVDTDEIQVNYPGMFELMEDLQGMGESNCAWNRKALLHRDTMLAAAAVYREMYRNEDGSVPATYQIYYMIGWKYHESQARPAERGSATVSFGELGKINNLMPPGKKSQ
UniProt Q9Y375: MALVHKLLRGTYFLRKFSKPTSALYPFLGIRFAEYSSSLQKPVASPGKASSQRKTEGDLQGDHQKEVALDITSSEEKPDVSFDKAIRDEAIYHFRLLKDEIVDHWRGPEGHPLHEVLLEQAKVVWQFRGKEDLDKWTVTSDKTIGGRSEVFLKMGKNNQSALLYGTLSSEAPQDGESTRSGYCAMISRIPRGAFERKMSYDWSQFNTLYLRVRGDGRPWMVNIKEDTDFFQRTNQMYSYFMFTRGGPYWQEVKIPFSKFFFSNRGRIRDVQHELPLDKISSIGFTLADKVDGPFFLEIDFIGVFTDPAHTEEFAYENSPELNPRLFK
UniProt P52849: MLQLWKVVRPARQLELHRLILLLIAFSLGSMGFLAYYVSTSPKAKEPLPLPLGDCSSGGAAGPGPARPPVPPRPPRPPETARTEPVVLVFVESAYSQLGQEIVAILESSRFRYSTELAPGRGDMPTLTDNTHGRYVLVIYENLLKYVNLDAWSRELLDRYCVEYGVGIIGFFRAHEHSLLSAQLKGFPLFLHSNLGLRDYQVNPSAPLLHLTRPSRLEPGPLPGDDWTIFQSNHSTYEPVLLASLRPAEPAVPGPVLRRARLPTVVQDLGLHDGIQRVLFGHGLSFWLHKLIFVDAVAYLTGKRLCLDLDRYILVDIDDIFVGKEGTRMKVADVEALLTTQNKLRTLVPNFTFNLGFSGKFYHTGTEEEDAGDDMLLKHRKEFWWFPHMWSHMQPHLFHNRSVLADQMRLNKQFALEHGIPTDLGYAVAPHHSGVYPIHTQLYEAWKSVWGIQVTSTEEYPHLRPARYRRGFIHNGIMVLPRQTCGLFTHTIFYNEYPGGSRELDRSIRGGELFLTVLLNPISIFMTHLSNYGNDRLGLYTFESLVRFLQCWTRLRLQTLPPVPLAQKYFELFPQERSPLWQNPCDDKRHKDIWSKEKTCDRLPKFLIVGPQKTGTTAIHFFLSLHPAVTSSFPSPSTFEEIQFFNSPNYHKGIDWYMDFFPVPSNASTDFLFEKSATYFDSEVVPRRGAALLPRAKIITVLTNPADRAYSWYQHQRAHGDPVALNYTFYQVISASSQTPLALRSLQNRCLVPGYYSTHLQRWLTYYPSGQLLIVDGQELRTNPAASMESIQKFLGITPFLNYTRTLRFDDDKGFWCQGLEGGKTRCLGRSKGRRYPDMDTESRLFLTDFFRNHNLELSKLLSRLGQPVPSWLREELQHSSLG
UniProt Q9BZQ8: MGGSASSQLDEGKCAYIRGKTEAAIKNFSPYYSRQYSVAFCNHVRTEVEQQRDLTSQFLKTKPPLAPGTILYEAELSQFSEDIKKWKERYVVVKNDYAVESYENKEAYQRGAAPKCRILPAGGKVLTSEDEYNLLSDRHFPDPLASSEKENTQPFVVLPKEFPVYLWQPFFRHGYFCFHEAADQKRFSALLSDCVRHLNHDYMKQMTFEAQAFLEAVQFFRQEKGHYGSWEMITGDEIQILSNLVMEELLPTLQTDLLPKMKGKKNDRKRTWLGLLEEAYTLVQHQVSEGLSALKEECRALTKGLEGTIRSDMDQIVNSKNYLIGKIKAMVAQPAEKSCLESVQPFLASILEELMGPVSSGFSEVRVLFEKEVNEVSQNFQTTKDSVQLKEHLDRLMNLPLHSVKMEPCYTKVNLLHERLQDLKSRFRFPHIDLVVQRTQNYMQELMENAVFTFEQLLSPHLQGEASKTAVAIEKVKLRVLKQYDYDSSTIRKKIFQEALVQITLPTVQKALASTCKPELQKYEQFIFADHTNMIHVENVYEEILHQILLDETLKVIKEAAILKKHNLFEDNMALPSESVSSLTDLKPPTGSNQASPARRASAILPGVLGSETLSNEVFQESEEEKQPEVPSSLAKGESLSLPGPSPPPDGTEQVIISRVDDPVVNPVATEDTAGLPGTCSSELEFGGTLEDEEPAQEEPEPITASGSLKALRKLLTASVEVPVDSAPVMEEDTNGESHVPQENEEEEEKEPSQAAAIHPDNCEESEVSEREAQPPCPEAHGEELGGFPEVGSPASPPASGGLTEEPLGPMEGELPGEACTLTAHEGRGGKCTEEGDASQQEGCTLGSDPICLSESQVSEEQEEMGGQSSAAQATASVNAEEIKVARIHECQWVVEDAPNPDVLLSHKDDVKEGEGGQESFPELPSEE
UniProt Q9BS92: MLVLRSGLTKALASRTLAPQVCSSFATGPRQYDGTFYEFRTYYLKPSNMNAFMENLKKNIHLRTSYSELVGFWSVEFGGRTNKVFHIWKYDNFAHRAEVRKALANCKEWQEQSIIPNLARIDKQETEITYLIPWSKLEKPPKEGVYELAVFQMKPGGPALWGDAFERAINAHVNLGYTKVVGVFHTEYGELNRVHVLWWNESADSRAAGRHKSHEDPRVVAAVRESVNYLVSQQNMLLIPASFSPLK
UniProt Q9Y6M9, whole entry, looked up: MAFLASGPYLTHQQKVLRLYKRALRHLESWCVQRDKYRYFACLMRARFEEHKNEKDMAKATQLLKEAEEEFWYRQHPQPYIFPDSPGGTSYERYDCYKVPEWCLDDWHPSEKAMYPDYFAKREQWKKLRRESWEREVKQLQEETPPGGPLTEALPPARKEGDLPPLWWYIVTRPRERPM
UniProt P48681: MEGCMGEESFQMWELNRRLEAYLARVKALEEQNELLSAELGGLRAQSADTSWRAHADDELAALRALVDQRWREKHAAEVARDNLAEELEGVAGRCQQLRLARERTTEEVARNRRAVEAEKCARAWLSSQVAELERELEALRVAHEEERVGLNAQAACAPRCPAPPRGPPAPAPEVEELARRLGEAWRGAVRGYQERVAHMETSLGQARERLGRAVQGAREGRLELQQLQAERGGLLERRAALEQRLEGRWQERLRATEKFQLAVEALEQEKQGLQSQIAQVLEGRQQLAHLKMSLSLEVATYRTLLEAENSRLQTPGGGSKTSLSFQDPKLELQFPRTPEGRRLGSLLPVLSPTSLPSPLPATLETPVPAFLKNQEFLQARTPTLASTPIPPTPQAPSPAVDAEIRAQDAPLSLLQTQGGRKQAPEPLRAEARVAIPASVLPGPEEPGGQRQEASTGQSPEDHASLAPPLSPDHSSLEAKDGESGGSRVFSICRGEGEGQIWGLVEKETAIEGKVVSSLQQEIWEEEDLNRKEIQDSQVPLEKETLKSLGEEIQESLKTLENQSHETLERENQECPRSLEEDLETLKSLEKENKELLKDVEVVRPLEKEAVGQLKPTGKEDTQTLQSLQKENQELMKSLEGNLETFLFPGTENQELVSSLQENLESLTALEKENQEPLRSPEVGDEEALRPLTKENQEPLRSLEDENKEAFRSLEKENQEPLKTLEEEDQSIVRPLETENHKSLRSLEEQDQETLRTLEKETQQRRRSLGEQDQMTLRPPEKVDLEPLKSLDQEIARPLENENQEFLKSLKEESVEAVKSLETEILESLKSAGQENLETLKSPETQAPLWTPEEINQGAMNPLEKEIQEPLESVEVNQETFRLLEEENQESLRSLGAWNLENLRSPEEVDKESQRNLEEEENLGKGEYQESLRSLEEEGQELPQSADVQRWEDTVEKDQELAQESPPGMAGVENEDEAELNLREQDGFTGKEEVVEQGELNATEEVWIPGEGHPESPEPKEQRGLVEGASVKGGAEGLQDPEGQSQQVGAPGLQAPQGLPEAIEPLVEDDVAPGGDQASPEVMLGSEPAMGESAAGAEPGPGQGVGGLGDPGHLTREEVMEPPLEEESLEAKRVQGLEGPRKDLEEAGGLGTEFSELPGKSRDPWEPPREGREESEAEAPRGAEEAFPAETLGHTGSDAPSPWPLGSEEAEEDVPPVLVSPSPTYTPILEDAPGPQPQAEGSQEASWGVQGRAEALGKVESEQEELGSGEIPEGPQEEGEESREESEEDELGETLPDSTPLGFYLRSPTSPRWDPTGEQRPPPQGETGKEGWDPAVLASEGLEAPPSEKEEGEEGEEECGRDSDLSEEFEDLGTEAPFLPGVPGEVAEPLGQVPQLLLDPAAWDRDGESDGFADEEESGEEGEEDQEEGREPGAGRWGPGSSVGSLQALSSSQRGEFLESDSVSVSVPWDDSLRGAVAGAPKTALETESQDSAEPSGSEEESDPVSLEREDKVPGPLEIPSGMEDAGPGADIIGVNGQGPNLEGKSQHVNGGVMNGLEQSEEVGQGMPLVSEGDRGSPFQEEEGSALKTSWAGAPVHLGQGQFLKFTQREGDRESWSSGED
UniProt O75489, whole entry, looked up: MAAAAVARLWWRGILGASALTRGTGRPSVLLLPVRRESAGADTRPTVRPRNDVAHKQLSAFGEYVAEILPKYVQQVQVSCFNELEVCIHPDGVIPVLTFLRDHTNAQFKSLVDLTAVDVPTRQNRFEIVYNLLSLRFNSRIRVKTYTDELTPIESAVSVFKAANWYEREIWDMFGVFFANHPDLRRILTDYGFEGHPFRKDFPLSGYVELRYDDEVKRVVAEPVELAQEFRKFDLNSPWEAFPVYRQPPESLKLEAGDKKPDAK
UniProt Q9NVZ3: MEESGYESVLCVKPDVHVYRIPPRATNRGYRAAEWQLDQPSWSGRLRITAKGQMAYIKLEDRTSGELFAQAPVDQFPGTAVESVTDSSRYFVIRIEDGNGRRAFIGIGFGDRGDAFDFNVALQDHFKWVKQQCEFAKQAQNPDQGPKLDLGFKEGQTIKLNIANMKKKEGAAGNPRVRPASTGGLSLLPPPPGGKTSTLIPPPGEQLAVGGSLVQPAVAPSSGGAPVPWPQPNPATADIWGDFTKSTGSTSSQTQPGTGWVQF

What was measured:
Test in all cases: log2 fold change, soluble protein after heating vs DMSO (PISA); higher = thermal stabilisation; K562 lysate, 10 uM; active = over 0.2 and 3.5 SD of the protein, either way, in both replicates (recomputed)
[1] = compound: CS(=O)(=O)CCNCc1ccc(-c2ccc3ncnc(Nc4ccc(OCc5cccc(F)c5)c(Cl)c4)c3c2)o1 [lapatinib]
Procedure, shortened: (§1)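 Thermal stability, expressed as log-two fold change relative to solvent controls, is given from duplicates. Crude K562 extract in PBS pH 7.4 with 1 mM MgCl2, at 1 mg/mL protein, was treated with 10 μM compound for 30 min and heated in aliquots for 3 min across 48°C-58°C. After pooling, adjustment to 0.5% NP-40 at 4°C and centrifugation at 21,000xg for 90 min, supernatant protein was measured by TMTpro 16plex LC-MS/MS with channel sums equalised.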

[2] = compound: CS(=O)(=O)N1CCN(Cc2cc3nc(-c4cccc5[nH]ncc45)nc(N4CCOCC4)c3s2)CC1 [pictilisib]
Procedure, shortened: as §1

[3] = compound: C[C@@H](Oc1cc(-c2cnn(C3CCNCC3)c2)cnc1N)c1c(Cl)ccc(F)c1Cl [crizotinib]
Procedure, shortened: as §1

[4] = compound: C[C@H](C1=CC=C(C=C1)C(=O)NC2=C3C=CNC3=NC=C2)N
Procedure, shortened: as §1

[5] = compound: C[C@H](Nc1ncnc2nc[nH]c12)c1cc2cccc(Cl)c2c(=O)n1-c1ccccc1 [duvelisib]
Procedure, shortened: as §1

[6] = compound: Cc1cc(Nc2cc(CN3CCOCC3)c3nc(C)c(Cc4ccc(Cl)cc4F)n3n2)n[nH]1 [gandotinib]
Procedure, shortened: as §1

[7] = compound: Cc1cc(Nc2cc(N3CCN(C)CC3)nc(Sc3ccc(NC(=O)C4CC4)cc3)n2)n[nH]1 [tozasertib]
Procedure, shortened: as §1

[8] = compound: Cc1ccc(-n2nc(C(C)(C)C)cc2NC(=O)Nc2ccc(OCCN3CCOCC3)c3ccccc23)cc1 [doramapimod]
Procedure, shortened: as §1

[9] = compound: Cc1ccc(NC(=O)c2ccc(CN3CC[C@H](N(C)C)C3)c(C(F)(F)F)c2)cc1Nc1nccc(-c2cncnc2)n1 [bafetinib]
Procedure, shortened: as §1

[10] = compound: Cc1cccc(CC(=O)N2CCc3c2ccc(-c2cn(C)c4ncnc(N)c24)c3F)n1
Procedure, shortened: as §1

[11] = compound: Cc1cn(-c2cc(NC(=O)c3ccc(C)c(Nc4nccc(-c5cccnc5)n4)c3)cc(C(F)(F)F)c2)cn1 [nilotinib]
Procedure, shortened: as §1

[12] = compound: Cc1nc(Nc2n[nH]c3c2CN(C(=O)N[C@H](CN(C)C)c2ccccc2)C3(C)C)c2sccc2n1
Procedure, shortened: as §1

[13] = compound: Cc1nc(Nc2ncc(C(=O)Nc3c(C)cccc3Cl)s2)cc(N2CCN(CCO)CC2)n1 [dasatinib]
Procedure, shortened: as §1

[14] = compound: Cc1ncc(-c2ccnc(Nc3ccc(S(C)(=O)=O)cc3)n2)n1C(C)C
Procedure, shortened: as §1

[15] = compound: Cn1cc(-c2ccc3c(c2)CCN3C(=O)Cc2cccc(C(F)(F)F)c2)c2c(N)ncnc21
Procedure, shortened: as §1

[16] = compound: Cn1cc(CNCC2CCN(c3ncc(C(=O)NO)cn3)CC2)c2ccccc21 [quisinostat]
Procedure, shortened: as §1

[17] = compound: Cn1cncc1[C@@](N)(c1ccc(Cl)cc1)c1ccc2c(c1)c(-c1cccc(Cl)c1)cc(=O)n2C [tipifarnib]
Procedure, shortened: as §1

[18] = compound: NC(=O)Nc1cc(-c2cccc(F)c2)sc1C(=O)N[C@H]1CCCNC1
Procedure, shortened: as §1

[19] = compound: NC(=O)c1cnc(N[C@@H]2CCCC[C@@H]2N)nc1Nc1cccc(-n2nccn2)c1
Procedure, shortened: as §1

[20] = compound: NC1(c2ccc(-c3nc4ccn5c(=O)[nH]nc5c4cc3-c3ccccc3)cc2)CCC1
Procedure, shortened: as §1

Measured: log2 fold change

NDUFV3 (UniProt P56181)
inactive: [1] 0.104 | [2] 0.043 | [3] 0.024 | [4] -0.024 | [5] 0.023 | [6] 0.009 | [7] -0.122 | [8] -0.025 | [9] 0.001 | [10] -0.127 | [11] 0.067 | [12] 0.248 | [13] 0.034 | [14] -0.151 | [15] -0.074 | [16] -0.014 | [17] -0.203 | [18] -0.065 | [19] -0.023 | [20] 0.01

NDUFAF5 (UniProt Q5TEU4)
active: [5] -0.286
inactive: [1] 0.002 | [2] -0.02 | [3] -0.044 | [4] -0.212 | [6] 0.026 | [7] 0.068 | [8] 0.129 | [9] -0.019 | [10] -0.061 | [13] 0.02 | [15] -0.061 | [16] -0.078 | [18] 0.114 | [19] -0.034 | [20] -0.042

NDUFAF1 (UniProt Q9Y375)
inactive: [1] -0.015 | [2] -0.008 | [3] -0.066 | [4] -0.071 | [5] -0.015 | [6] 0.049 | [7] -0.023 | [8] -0.11 | [9] 0.048 | [10] 0.035 | [11] 0.121 | [12] -0.037 | [13] 0.006 | [14] 0.003 | [15] -0.037 | [16] -0.134 | [17] -0.014 | [18] 0.036 | [19] 0.031 | [20] 0.076

NEB isoform 3 (UniProt P20929)
inactive: [1] 0.091 | [2] 0.104 | [3] -0.103 | [4] -0.202 | [5] -0.02 | [6] 0.141 | [8] 0.015 | [9] -0.046 | [10] 0.313 | [11] 0.14 | [12] -0.154 | [13] 0.031 | [14] -0.037 | [15] -0.077 | [16] -0.155 | [17] -0.256 | [18] 0.014 | [19] 0.051 | [20] -0.103

NDST2 (UniProt P52849)
inactive: [1] -0.06 | [2] 0.267 | [3] -0.038 | [4] 0.172 | [5] 0.023 | [6] -0.079 | [7] -0.155 | [8] 0.144 | [9] 0.15 | [10] 0.005 | [11] -0.006 | [12] -0.058 | [13] 0.059 | [14] -0.087 | [15] -0.106 | [16] 0.117 | [17] -0.083 | [18] -0.065 | [19] 0.01 | [20] -0.058

Taken from the entries so far (3 entries):
NDUFAF5 (UniProt Q5TEU4)
active: [5] -0.286
inactive: [1] 0.002 | [2] -0.02 | [3] -0.044 | [4] -0.212 | [6] 0.026 | [7] 0.068 | [8] 0.129 | [9] -0.019 | [10] -0.061 | [13] 0.02 | [15] -0.061 | [16] -0.078 | [18] 0.114 | [19] -0.034 | [20] -0.042

NDUFAF1 (UniProt Q9Y375)
inactive: [1] -0.015 | [2] -0.008 | [3] -0.066 | [4] -0.071 | [5] -0.015 | [6] 0.049 | [7] -0.023 | [8] -0.11 | [9] 0.048 | [10] 0.035 | [11] 0.121 | [12] -0.037 | [13] 0.006 | [14] 0.003 | [15] -0.037 | [16] -0.134 | [17] -0.014 | [18] 0.036 | [19] 0.031 | [20] 0.076

NEB isoform 3 (UniProt P20929)
inactive: [1] 0.091 | [2] 0.104 | [3] -0.103 | [4] -0.202 | [5] -0.02 | [6] 0.141 | [8] 0.015 | [9] -0.046 | [10] 0.313 | [11] 0.14 | [12] -0.154 | [13] 0.031 | [14] -0.037 | [15] -0.077 | [16] -0.155 | [17] -0.256 | [18] 0.014 | [19] 0.051 | [20] -0.103

Next part:

NDUFB10 (UniProt O96000)
inactive: [1] -0.034 | [2] -0.02 | [3] -0.007 | [4] 0.013 | [5] 0.025 | [6] 0.01 | [7] -0.025 | [8] -0.034 | [9] -0.057 | [10] -0.008 | [11] 0.012 | [12] -0.003 | [13] -0.002 | [14] -0.018 | [15] -0.051 | [16] -0.021 | [17] -0.008 | [18] 0.029 | [19] 0.024 | [20] -0.009

NIBAN1 (UniProt Q9BZQ8)
inactive: [1] -0.01 | [2] -0.035 | [3] -0.049 | [4] 0.051 | [5] 0.002 | [6] -0.101 | [7] 0.029 | [8] -0.025 | [9] -0.004 | [10] 0.014 | [11] 0.016 | [12] 0.036 | [13] -0.029 | [14] -0.015 | [15] 0.02 | [16] -0.013 | [17] -0.03 | [18] 0.008 | [19] 0.007 | [20] -0.03

NIPSNAP3B (UniProt Q9BS92)
inactive: [1] -0.087 | [2] 0.116 | [3] -0.108 | [4] -0.045 | [6] 0.104 | [7] 0.214 | [8] 0.134 | [9] -0.132 | [10] 0.07 | [11] -0.101 | [12] 0.136 | [14] -0.069 | [16] 0.041 | [17] -0.088 | [18] -0.09 | [19] -0.032 | [20] -0.006

NDUFB9 (UniProt Q9Y6M9)
inactive: [1] -0.013 | [2] -0.057 | [3] 0.044 | [4] 0.04 | [5] 0.007 | [6] -0.082 | [7] -0.018 | [8] -0.034 | [9] 0.075 | [10] -0.07 | [11] 0.058 | [12] 0.022 | [13] 0.019 | [14] -0.011 | [15] -0.004 | [16] 0.064 | [17] 0.031 | [18] -0.015 | [19] 0.012 | [20] 0.043

NES (UniProt P48681)
inactive: [1] -0.023 | [2] -0.023 | [3] -0.013 | [4] 0.001 | [5] 0.024 | [6] 0.015 | [7] 0.084 | [8] -0.007 | [9] -0.068 | [10] 0.013 | [11] -0.017 | [12] -0.037 | [13] -0.018 | [14] 0.017 | [15] 0.011 | [16] -0.033 | [17] 0.01 | [18] 0.018 | [19] -0.002 | [20] -0.001

NDUFS3 (UniProt O75489)
inactive: [1] -0.017 | [2] -0.009 | [3] 0.01 | [4] 0.008 | [5] -0.03 | [6] -0.056 | [7] -0.005 | [8] -0.063 | [9] -0.01 | [10] 0.007 | [11] -0.007 | [12] -0.033 | [13] 0.023 | [14] -0.017 | [15] 0.025 | [16] 0.069 | [17] 0.005 | [18] -0.013 | [19] 0.001 | [20] 0.026

NECAP2 (UniProt Q9NVZ3)
inactive: [1] -0.007 | [2] -0.042 | [3] 0.036 | [4] 0.047 | [5] -0.023 | [6] -0.038 | [7] -0.028 | [8] -0.015 | [9] 0.041 | [10] -0.024 | [11] 0.029 | [12] -0.016 | [13] 0.05 | [14] 0.029 | [15] -0.001 | [16] -0.022 | [17] 0.007 | [18] 0.003 | [19] -0.012 | [20] 0.028
